Test results as given in US20110251128A1 (The Board of Regents of the University of Texas System, priority 2010, published 2011).

The chains behind the UniProt entries cited, without tags or fusion partners. Where a name states a change or a piece, a line headed by the entry shows the natural chain unless it says otherwise.
UniProt P62328: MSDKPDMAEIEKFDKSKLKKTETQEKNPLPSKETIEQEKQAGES

Key:
[1] = tested on: adult human cardiomyocytes; assay: Uptake of nanogold labeled AGES into cardiomyocytes; type: cell-based; settings: nanogold conjugate, ten minutes after external administration
[2] = general procedure: Fmoc solid-phase peptide synthesis; Wang resin (Novabiochem); HBTU/HOBt; settings: conjugation step

nanogold labeled AGES: AGES peptide conjugated with mono-sulfo-hydroxi-succimido nanogold (Thymosin beta-4 nanogold label; UniProt P62328 41-44, looked up, fragment)
intracellular localization in cardiomyocytes [1]: in the nuclei of adult human cardiomyocytes | intracellular localization in cardiomyocytes ([1]; listed as Nanogold labeled AGES conjugate): enters the nucleus of adult human cardiomyocytes as early as ten minutes

protected chelator 1-AGES conjugate (SDKPDM; Thymosin beta-4 N-acetyl; UniProt P62328 2-7, looked up, fragment)
conjugation yield [2]: 55%
